{"source": "patent US20240016762A1", "about": "“DUAL ANALGESIC/ANTI-INFLAMMATORY COMPOSITIONS COMPRISING CB2 RECEPTOR AGONISTS, COMBINATIONS, AND METHODS OF USE THEREOF” (Altus Formulation lnc., priority 2020, published 2024)", "tested_on": "choroidal explants (sclera/choroid/RPE complex)", "format": "cell-based, mice", "conditions": "24 hrs treatment, dose-dependent", "note": "At least one structure is not confirmed: it was looked up by name or label, or the drawing left a doubt.", "data": [{"smiles": "Cc1ccc(-c2cc(C(F)(F)F)nn2-c2ccc(S(N)(=O)=O)cc2)cc1", "note": "[celecoxib]", "values": [{"measurement": "Anti-angiogenic effect", "value": "significant anti-angiogenic effect compared to PBS"}]}]}
